Measurements as given in PubChem BioAssay (EPA / NIEHS).
Several values for one entry are separate records, joined by “and”; a condition that tells them apart may be missing. Identical values can stand only once. This list was built around the results that the source calls inconclusive (neither active nor inactive); the mix of calls is not that of the screen. Where the call is inconclusive, the potency comes from a doubtful curve fit. Activity calls are given as the source filed them. Rule for the calls: active = hit-call score of the fitted dose curve at least 0.9, where 1 is the maximum; inconclusive = response in the unintended direction; inactive = score below 0.9.

The chains behind the UniProt entries cited, without tags or fusion partners. Where a name states a change or a piece, a line headed by the entry shows the natural chain unless it says otherwise.
UniProt Q92753: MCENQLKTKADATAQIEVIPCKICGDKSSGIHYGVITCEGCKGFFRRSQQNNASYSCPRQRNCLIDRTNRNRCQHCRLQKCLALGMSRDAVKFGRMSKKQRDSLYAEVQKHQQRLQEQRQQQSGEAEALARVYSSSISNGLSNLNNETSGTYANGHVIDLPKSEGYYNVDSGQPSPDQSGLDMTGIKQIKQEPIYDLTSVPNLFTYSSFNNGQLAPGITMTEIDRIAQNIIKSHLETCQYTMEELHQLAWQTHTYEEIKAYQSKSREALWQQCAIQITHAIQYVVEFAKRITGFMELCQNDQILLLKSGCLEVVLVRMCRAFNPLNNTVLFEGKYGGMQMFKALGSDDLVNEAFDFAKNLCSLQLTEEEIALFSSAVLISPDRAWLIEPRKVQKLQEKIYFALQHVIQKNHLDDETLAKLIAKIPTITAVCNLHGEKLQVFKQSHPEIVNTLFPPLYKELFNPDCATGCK

target: human RAR-related Orphan Receptor beta (RORb), RORB (gene 6096) (UniProt Q92753); experiment: ATG_RORb_TRANS: Attagene TRANS-FACTORIAL HepG2 Assay for human RAR-related Orphan Receptor beta (RORb) (AID 2283010);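 for AC50: potency for increased reporter mRNA meaning activation of RORb-Gal4 chimera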
Description: ATG_TRANS is a cell-based, multiplexed-readout assay that uses HepG2, a human liver cell line, with measurements taken at 24 hours after chemical dosing in a 24-well plate.ATG_RORb_TRANS is one of 30 assay component(s) measured or calculated from the ATG_TRANS assay. It is designed to make measurements of mRNA induction, a form of inducible reporter, as detected with fluorescence intensity signals by Reverse transcription polymerase chain reaction (RT-PCR) and Capillary electrophoresis technology.Data from the assay component ATG_RORb_TRANS was analyzed into 1 assay endpoint. This assay endpoint, ATG_RORb_TRANS, was analyzed in the positive analysis fitting direction relative to DMSO as the negative control and baseline of activity. Using a type of inducible reporter, measures of mRNA for gain-of-signal activity can be used to understand the reporter gene at the transcription factor-level as they relate to the gene RORB. Furthermore, this assay endpoint can be referred to as a primary readout, because this assay has produced multiple assay endpoints where this one serves a reporter gene function. To generalize the intended target to other relatable targets, this assay endpoint is annotated to the nuclear receptor intended target family, where the subfamily is orphan.
Human liver HepG2 cells are transiently transfected with multiple reporter transcription units (MRTUs) in 6-well plates using FuGene 6 reagent (Roche; 3 ml FuGene/1 mg DNA). The MRTU constructs are regulated by a cis-regulating element (promoter). […] A major difference between the CIS and TRANS system is that in CIS activities of endogenous TFs are measured, whereas the TRANS assay evaluates changes in activities of exogenous, chimeric NR-Gal4 proteins. […] At the end of 24 hour incubation, total RNA was isolated using TriZol reagent (Invitrogen). The isolated RNA is then reverse-transcribed using oligo(dT) primer and Mo-MLV reverse transcriptase (Invitrogen) with DNAse I (Ambion) treatment for 30 min. The one-tenth of the produced cDNA was amplified by PCR using Taq DNA polymerase (Invitrogen) and two reporter sequence-specific primers. The PCR products were fluorescently labeled by primer extension with 6-arboxyfluorescein (6-FAM) 5'-labeled reporter sequence-specific primer (2 min at 95 C, 20 s at 68 C and 10 min at 72 C) and these products were digested with 5U of HpaI (New England Biolabs) for 2h at 37 C. The fragments were purified using Qiaquick PCR columns (Qiagen), analyzed on an ABI 3130xL genetic analyzer (Applied Biosystems) with peak positions identified by using a set of X-rhodamine (ROX)-labeled MapMarker1000 molecular weight standards (BioVentures). The raw capillary electrophoresis data was processed using Attagraph software (Attagene).

Row | Structure (SMILES) | AC50 | outcome
1 | O[Si](c1ccccc1)(c1ccccc1)c1ccccc1 | inconclusive: 10.7 µM | –
2 | CC(C)c1cccc(C(C)C)c1N1C(=O)c2ccc(O)cc2C1=O | inconclusive: 32.7 µM | –
3 | Clc1ccccn1 | inconclusive: 100 µM | –
5 | CC(=O)OCc1ccco1 | – | inactive
6 | CCCCCCCC(=O)OCCCCCC | inconclusive: 100 µM | –
7 | [O-]/[N+](=N\O)c1ccccc1 | inconclusive: 155 µM | –
8 | CCN(C(=O)c1cc(C)cc(OC[C@H](C)Nc2ccncc2)c1)C(C)C | – | inactive
9 | O=C(O)c1ccc(O)cc1 | – | inactive
10 | C1=CCCC=CCCC=CCC1 | inconclusive: 100 µM | –
11 | CCCC(=O)O | inconclusive: 100 µM | –
13 | CCOC(=O)CC(=O)OCC | – | inactive
14 | FC(F)(F)C(F)(F)C(F)(F)C(F)(F)C(F)(F)C(F)(F)CCS | inconclusive: 63.5 µM | –
15 | CC(C)COC(=O)c1ccccc1O | inconclusive: 100 µM | –
18 | ON(Cc1ccccc1)Cc1ccccc1 | inconclusive: 100 µM | –
19 | CCCN(CCC)c1c([N+](=O)[O-])cc(C(F)(F)F)c(N)c1[N+](=O)[O-] | inconclusive: 0.0129 µM | –

Row | Structure (SMILES) | AC50 | outcome
21 | C#CC(C)N(C)C(=O)Nc1ccc(Cl)cc1 (stereo not given) | – | inactive
24 | CCOC(=O)[C@H](O)[C@@H](O)C(=O)OCC | inconclusive: 100 µM | –
25 | CCCCC(CC)COC(=O)c1ccc(C(=O)OCC(CC)CCCC)cc1 (stereo not given) | – | inactive
26 | Cc1cc(SC2=C(O)C[C@@](CCc3ccc(N)cc3)(C(C)C)OC2=O)c(C(C)(C)C)cc1CO | – | inactive
28 | CC(=O)O[C@H](CC(=O)[O-])C[N+](C)(C)C | inconclusive: 100 µM | –
29 | COCCOCCOCCOC | inconclusive: 100 µM | –
30 | Nc1c(S(=O)(=O)O)cc(Br)c2c1C(=O)c1ccccc1C2=O | inconclusive: 100 µM | –
31 | O=C(NO)c1ccccc1 | inconclusive: 2.29 µM and inconclusive: 24.7 µM and inconclusive: 10.1 µM | –
32 | O=C(O)CCCCCCCC(=O)O | inconclusive: 100 µM | –
34 | FC(F)(F)N1C(F)(F)C(F)(F)OC(F)(F)C1(F)F | – | inactive
35 | Oc1ccc(C(c2ccc(O)cc2)C(Cl)(Cl)Cl)cc1 | – | inactive
36 | CC(C)(O)c1ccc(CNC(=O)c2cccnc2Oc2ccc(F)cc2)cc1 | inconclusive: 0.157 µM | –
37 | IC(I)I | – | inactive
38 | O=C(O)c1ccccc1O | inconclusive: 100 µM | –
